Results published in PMC3961337.
These are yes or no findings as the source states them, for the method shown. For some of these results: In cells and extracts the contact can be indirect. Some binding calls cover weakened binding; strength is not graded here. Tags and fused reporters may be left off the sequences shown.

By UniProt entry, the sequences of proteins in these tests, tags left out.
UniProt Q7AKG9: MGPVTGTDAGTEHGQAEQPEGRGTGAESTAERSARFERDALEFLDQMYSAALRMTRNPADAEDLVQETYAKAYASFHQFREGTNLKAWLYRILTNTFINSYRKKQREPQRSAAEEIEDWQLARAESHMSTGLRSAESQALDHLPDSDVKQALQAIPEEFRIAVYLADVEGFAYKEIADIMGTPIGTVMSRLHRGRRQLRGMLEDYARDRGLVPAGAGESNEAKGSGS

B1: rsrA-cfp-pET28a (+) protein (RCP) (protein, UniProt Q7AKG8 1-105)
chain: MSCGEPHETDCSEILDHLYEFLDKEMPDSDCVKFEHHFEECSPCLEKYGLEQAVKKLVKRCCGQDDVPGDLRAKVMGRLDLIRSGQSVPEHDVAAAPSSSAPQES
B2: RCP with the histidine tag removed by thrombin (zinc function assay) (protein, UniProt Q7AKG8 1-105)
chain: B1 chain

Experiments:
[1] = biological target: sigR-yfp-pET28a (+) protein (SYP) (S. coelicolor M145) (UniProt Q7AKG9); assay: FRET or BRET; in E. coli BL21 (DE3) cells co-expressing SYP and RCP, cells treated with CaCl2, suspended in PBS pH 7.8; FRET ratio 528 nm/478 nm before and after diamide or ROS
[2] = biological target: sigR-yfp-pET28a (+) protein (SYP) (S. coelicolor M145) (UniProt Q7AKG9); assay: FRET or BRET; in vitro, 0.5 μM RCP and 0.5 μM SYP in binding buffer (0.01 mM EDTA, 20% glycerol, 10 mM MgCl2, 40 mM Tris, pH 8.0), 30°C, under nitrogen; excitation 440 nm, emission 478 and 528 nm; spectra and time courses; 2.5 mM DTT added in some time courses; both purified
[3] = biological target: sigR-yfp-pET28a (+) protein (SYP) (S. coelicolor M145) (UniProt Q7AKG9); assay: BLI; Octet QKe; biotinylated σR or SYP (0.5 μM in PBS) captured on streptavidin biosensor tips; RsrA or RCP as analyte, four 2-fold serial dilutions starting at 200 nM; kinetic buffer (binding buffer, 1 mg/ml BSA, 0.02% Tween 20); association and dissociation 14 min each; CFP or YFP as references; 1:1 binding model; both purified
[4] = biological target: SYP with the histidine tag removed by thrombin (zinc function assay) (S. coelicolor M145) (UniProt Q7AKG9); assay: condition: only with increasing concentrations of diamide or ROS (-OCl, H2O2, ·OH, O2·-, ONOO-); FRET or BRET; dose-response of the same concentration of RCP, SYP and Zn2+ (500 μM) to increasing concentrations of diamide, -OCl, H2O2, ·OH, O2·- and ONOO-; ΔFRET ratio; both purified

Row | Binder | binding [1] | binding [2] | binding [3] | binding [4]
1 | B1 | binds | binds | binds | –
2 | B2 | – | – | – | no binding
